# Test results reported in the supplement of paper PMC11006884.
# Protein sequences, listed by entry. Tags and fused reporters are not part of them. Lines headed by an entry give the natural chain unless they say otherwise; changes in a name come on top.
# UniProt O00213: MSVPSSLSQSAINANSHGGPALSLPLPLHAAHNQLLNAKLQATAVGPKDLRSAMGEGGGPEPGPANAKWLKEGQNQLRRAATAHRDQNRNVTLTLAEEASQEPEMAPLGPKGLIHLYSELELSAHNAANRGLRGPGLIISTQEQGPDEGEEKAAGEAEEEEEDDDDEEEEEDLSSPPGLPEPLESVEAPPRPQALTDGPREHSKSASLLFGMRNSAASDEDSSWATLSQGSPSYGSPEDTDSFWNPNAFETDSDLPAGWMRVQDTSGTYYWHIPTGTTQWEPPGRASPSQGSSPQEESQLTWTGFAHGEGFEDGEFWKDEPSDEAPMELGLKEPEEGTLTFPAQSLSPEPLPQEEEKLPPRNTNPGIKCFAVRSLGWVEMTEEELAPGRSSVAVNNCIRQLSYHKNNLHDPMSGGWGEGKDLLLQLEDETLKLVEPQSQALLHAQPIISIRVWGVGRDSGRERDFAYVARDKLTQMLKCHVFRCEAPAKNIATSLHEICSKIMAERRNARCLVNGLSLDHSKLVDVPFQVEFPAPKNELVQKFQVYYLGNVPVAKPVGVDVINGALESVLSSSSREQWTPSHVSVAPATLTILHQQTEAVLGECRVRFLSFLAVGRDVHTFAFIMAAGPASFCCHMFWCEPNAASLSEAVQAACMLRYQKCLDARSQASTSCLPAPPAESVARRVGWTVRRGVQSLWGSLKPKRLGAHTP
# UniProt O00571: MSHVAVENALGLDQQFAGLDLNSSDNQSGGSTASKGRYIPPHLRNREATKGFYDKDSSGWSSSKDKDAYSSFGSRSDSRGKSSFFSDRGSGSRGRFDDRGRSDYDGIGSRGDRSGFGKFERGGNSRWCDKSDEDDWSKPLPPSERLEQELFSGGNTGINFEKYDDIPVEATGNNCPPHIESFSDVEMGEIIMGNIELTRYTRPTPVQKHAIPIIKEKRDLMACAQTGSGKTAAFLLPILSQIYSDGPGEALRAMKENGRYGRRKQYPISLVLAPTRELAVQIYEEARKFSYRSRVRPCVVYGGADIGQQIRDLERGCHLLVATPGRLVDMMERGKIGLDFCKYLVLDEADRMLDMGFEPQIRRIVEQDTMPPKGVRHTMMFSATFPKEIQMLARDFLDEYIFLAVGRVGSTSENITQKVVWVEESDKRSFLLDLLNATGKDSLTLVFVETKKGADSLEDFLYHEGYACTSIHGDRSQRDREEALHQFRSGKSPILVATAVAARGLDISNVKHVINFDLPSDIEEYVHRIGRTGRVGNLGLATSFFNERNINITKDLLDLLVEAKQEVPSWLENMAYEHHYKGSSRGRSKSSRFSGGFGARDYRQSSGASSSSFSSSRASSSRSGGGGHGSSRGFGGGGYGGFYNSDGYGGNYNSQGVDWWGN
# UniProt O14497, whole entry, looked up: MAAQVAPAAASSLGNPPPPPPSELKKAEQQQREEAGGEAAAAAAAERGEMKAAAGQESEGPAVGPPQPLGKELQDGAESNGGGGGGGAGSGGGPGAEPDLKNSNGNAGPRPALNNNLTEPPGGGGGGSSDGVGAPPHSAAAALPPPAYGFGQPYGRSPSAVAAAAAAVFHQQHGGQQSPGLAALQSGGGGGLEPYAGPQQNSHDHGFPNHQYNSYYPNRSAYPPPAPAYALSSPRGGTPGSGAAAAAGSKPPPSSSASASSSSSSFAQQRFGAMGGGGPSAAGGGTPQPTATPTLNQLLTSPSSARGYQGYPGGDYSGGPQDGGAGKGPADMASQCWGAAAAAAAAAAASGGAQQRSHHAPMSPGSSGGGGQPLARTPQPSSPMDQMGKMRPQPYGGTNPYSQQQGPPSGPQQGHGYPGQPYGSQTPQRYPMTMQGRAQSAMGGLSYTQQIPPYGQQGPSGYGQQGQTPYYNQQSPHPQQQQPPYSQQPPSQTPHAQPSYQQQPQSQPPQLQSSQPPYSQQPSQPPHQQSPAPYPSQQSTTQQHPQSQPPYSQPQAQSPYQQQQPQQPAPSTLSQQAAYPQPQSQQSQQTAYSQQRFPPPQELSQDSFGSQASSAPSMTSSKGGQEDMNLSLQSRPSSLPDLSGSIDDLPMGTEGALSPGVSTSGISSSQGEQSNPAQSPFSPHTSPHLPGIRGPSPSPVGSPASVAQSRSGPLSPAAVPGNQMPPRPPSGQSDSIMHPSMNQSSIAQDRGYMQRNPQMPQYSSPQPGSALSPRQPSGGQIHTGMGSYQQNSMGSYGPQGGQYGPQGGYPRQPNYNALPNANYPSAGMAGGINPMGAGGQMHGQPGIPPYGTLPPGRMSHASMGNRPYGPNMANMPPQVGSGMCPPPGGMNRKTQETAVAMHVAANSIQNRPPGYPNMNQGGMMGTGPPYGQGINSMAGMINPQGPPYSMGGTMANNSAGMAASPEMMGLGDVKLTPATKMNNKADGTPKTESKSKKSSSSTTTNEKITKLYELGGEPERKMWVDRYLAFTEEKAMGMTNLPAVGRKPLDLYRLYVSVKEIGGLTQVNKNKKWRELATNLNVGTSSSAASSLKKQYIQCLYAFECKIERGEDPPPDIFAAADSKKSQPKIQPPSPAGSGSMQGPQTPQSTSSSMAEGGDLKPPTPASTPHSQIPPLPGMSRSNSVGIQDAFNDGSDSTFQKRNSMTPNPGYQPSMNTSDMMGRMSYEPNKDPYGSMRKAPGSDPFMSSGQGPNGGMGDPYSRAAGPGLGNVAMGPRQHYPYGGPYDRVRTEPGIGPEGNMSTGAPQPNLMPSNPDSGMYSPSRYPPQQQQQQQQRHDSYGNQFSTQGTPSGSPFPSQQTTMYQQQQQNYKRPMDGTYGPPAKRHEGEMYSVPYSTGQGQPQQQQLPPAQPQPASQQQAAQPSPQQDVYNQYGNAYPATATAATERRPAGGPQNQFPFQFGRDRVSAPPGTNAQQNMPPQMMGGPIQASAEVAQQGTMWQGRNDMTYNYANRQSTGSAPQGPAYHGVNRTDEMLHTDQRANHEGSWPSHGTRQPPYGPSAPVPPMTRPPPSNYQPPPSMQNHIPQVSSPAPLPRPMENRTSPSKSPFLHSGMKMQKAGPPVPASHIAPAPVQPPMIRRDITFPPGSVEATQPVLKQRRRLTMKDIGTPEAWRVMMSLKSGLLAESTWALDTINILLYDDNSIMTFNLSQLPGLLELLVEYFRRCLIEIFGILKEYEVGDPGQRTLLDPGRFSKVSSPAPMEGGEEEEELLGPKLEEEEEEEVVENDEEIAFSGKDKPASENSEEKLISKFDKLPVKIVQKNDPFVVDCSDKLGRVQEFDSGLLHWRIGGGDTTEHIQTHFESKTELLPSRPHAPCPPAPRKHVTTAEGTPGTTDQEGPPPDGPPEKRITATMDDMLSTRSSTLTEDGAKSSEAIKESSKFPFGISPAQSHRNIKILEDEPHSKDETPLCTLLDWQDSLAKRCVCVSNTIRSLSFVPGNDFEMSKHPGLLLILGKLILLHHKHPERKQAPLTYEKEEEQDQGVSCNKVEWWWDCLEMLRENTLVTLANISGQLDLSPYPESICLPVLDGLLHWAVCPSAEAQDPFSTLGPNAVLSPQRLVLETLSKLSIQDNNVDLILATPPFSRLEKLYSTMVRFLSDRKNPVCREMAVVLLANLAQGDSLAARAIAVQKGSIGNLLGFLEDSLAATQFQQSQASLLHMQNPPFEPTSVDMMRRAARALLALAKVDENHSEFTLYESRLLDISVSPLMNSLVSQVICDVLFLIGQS
# UniProt O14545: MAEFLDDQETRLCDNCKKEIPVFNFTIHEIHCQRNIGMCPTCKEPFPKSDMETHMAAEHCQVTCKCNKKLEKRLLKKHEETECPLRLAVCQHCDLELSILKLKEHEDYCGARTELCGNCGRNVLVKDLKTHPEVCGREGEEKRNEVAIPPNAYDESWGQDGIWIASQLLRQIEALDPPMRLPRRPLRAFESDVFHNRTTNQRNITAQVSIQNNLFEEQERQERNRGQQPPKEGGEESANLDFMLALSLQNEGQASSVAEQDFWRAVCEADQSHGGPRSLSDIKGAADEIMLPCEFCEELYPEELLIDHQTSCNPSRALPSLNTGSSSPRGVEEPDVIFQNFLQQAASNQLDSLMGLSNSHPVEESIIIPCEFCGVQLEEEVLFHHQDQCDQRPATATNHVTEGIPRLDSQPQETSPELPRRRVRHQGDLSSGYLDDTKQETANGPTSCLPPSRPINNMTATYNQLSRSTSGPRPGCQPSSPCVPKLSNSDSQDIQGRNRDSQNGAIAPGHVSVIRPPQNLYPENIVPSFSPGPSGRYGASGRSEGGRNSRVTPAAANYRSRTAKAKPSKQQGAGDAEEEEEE
# UniProt O00116: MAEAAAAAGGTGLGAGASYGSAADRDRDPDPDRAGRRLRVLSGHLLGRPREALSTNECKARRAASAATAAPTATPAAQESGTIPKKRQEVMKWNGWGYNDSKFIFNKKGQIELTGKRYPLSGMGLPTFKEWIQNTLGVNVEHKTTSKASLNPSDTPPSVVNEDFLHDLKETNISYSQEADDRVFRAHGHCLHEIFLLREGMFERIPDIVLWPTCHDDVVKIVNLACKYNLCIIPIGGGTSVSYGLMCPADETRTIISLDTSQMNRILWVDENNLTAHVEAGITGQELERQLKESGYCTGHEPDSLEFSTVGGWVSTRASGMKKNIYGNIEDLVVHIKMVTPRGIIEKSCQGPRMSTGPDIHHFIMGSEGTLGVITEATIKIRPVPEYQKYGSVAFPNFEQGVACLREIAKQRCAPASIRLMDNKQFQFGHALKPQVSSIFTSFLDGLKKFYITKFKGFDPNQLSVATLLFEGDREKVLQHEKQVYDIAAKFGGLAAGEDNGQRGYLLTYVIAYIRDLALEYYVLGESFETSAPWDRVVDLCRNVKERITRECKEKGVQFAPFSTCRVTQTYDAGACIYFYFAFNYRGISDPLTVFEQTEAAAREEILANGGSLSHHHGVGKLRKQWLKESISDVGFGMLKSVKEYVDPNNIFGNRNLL
# UniProt O43175: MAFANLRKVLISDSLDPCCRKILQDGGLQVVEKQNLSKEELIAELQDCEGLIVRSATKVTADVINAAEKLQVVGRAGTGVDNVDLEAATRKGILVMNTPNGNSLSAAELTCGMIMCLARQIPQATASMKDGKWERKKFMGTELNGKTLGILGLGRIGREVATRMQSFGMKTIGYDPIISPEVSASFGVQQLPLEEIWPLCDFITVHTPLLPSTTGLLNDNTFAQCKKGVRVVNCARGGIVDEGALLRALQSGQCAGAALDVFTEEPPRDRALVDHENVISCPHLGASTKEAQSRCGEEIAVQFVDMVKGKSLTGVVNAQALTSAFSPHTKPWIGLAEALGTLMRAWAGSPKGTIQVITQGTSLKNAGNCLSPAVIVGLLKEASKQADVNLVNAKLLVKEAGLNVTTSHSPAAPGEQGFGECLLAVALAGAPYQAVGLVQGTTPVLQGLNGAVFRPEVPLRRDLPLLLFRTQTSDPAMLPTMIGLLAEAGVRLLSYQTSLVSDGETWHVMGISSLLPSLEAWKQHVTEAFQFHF
# UniProt O14979: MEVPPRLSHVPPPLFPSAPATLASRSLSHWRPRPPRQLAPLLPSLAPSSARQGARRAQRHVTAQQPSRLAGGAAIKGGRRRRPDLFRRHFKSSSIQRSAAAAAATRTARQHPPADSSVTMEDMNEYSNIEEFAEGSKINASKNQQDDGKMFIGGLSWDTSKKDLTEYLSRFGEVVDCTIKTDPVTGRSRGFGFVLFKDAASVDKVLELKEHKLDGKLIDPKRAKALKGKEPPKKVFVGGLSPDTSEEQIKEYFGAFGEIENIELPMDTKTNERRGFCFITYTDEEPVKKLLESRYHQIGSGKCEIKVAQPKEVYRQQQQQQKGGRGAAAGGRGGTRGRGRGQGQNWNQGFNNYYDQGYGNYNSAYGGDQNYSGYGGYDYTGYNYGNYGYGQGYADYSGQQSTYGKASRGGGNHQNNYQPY
# UniProt O14662: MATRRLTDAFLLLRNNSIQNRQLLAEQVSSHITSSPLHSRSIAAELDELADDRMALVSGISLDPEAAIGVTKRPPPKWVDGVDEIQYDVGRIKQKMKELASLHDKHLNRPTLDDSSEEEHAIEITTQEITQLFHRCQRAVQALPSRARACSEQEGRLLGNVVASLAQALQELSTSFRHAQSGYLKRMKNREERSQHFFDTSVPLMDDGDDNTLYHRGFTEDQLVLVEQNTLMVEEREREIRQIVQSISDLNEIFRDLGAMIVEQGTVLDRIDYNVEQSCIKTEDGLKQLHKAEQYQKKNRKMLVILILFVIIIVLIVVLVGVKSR
# UniProt O14965: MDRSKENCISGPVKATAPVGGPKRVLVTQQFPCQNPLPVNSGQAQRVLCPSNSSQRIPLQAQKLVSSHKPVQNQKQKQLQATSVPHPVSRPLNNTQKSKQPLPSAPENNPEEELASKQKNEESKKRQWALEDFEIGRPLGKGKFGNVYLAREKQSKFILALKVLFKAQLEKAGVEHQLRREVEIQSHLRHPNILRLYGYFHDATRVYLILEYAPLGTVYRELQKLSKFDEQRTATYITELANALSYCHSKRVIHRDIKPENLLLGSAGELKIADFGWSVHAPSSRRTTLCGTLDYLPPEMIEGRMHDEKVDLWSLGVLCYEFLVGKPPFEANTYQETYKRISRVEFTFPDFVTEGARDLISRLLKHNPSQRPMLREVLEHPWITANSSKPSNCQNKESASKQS
# This is a selection; strong and weak results do not stand in their true shares.
# Compound: COC(=O)C#Cc1ccccc1 [methyl 3-phenylpropiolate]
# Test: log2 ratio of iodoacetamide-alkyne labeling of the cysteine site, DMSO over compound (competition); higher = stronger covalent engagement of the cysteine by the compound, active = 1 or more
# Details: 500 µM; treatment time 1 h; system: HEK293T cell lysate
# Summary of the method: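 Three replicates, each with duplicate channels, were prepared from HEK293T lysate (2 mg/mL) treated with vehicle or electrophile at 500 µM for 1 h at ambient temperature. Iodoacetamide alkyne was then applied for 1 h, and samples were clicked to sCIP-TMT reagents, pooled, trypsin-digested overnight at 37 °C, enriched on streptavidin, acid-eluted and analysed on Orbitrap Eclipse LC-MS/MS with FAIMS, with FragPipe quantification. The log2 competition ratio per cysteine is the mean control-channel divided by the mean compound-channel reporter intensity. Cysteines quantified in only one replicate were left out.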
row,Target,log2 ratio of iodoacetamide-alkyne labeling
1,IRS4 C658 (UniProt O14654),inactive: 0.592
2,UniProt O00213_C672,inactive: 0.552
3,ZZEF1 C2037 (UniProt O43149),inactive: 0.217
4,DDX3X C223 (UniProt O00571),inactive: 0.336
5,ARID1A C1827 (UniProt O14497),inactive: 0.311
6,DDX3X C317 (UniProt O00571),inactive: 0.124
7,NVL C448 (UniProt O15381),inactive: 0.0738
8,DVL2 C354 (UniProt O14641),inactive: 0.289
9,PSMA7 C63 (UniProt O14818),inactive: 0.114
10,ZSWIM8 C125 (UniProt A7E2V4),inactive: 0.374
11,TRAFD1 C476 (UniProt O14545),active: 1.55
12,DVL2 C80 (UniProt O14641),inactive: 0.142
13,AGPS C297 (UniProt O00116),inactive: -0.0189
14,DNM1L C505 (UniProt O00429),inactive: 0.219
15,ARID1A C336 (UniProt O14497),inactive: 0.481
16,IRS4 C1065 (UniProt O14654),inactive: 0.793
17,POLR3A C960 (UniProt O14802),inactive: 0.493
18,ARID1A C1968 (UniProt O14497),inactive: 0.5
19,PHGDH C254 (UniProt O43175),inactive: 0.208

row,Target,log2 ratio of iodoacetamide-alkyne labeling
1,MRPS12 C93 (UniProt O15235),inactive: 0.317
2,PHGDH C116 (UniProt O43175),inactive: 0.00502
3,NKRF C37 (UniProt O15226),active: 1.02
4,CIT C402 (UniProt O14578),inactive: 0.955
5,UniProt O00442_C28,inactive: -0.174
6,AGPS C214 (UniProt O00116),inactive: 0.0828
7,UniProt O14979_C277,inactive: -0.198
8,STX16 C150 (UniProt O14662),inactive: 0.0256
9,NVL C359 (UniProt O15381),inactive: -0.043
10,CD3EAP C55 (UniProt O15446),inactive: 0.552
11,UniProt O14965_C393,inactive: 0.594
12,DDX3X C468 (UniProt O00571),inactive: 0.261
13,GTPBP1 C46 (UniProt O00178),inactive: 0.388
14,FANCG C417 (UniProt O15287),inactive: 0.36
15,ARHGEF11 C1166 (UniProt O15085),inactive: 0.618
16,PHGDH C48 (UniProt O43175),inactive: -0.108
17,UniProt O00567_C52,inactive: 0.482
18,GNPAT C73 (UniProt O15228),inactive: 0.613

# Taken from above:
# log2 ratio of iodoacetamide-alkyne labeling, STX16 C150 (UniProt O14662) reads inactive: 0.0256
# log2 ratio of iodoacetamide-alkyne labeling, ARID1A C1968 (UniProt O14497) reads inactive: 0.5
